Data as given in publication PMC10179560.
These are yes or no findings as the source states them, for the method shown. Binding seen in cells or lysates may run through a third protein. Some binding calls cover weakened binding; strength is not graded here.

Amino acid sequences for entries named in this document (tags omitted).
UniProt D3ZNT6: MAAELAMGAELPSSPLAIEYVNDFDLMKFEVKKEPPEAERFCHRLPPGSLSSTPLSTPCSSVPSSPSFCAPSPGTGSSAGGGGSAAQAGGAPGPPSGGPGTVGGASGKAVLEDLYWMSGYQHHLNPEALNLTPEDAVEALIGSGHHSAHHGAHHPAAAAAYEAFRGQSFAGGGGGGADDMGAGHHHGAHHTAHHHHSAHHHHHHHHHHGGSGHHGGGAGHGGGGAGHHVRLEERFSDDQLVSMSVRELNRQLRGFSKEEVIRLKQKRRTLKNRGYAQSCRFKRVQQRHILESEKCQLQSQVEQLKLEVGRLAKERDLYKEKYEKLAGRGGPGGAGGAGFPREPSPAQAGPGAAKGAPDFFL
UniProt Q64289: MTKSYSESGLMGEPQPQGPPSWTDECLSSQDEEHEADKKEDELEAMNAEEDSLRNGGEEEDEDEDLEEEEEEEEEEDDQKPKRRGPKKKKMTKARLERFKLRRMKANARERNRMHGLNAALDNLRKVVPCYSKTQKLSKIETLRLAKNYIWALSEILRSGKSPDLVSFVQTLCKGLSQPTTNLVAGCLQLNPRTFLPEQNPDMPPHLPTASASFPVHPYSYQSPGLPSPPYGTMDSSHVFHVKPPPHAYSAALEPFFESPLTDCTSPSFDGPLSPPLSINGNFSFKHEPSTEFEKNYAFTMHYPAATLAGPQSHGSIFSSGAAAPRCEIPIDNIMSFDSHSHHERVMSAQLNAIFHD
UniProt P52947: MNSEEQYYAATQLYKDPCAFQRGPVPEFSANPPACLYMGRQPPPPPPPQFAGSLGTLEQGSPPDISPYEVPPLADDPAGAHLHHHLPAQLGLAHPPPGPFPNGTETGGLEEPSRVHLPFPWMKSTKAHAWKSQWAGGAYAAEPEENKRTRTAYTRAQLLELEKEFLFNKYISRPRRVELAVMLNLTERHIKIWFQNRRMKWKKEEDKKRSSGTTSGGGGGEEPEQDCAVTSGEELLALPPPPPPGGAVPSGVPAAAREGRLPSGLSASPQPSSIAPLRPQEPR

Target: T1, PIMT (PRIP-Interacting protein with Methyl Transferase activity) (rat (endogenous in BRIN-BD11)) (UniProt P85107)
T1 sequence: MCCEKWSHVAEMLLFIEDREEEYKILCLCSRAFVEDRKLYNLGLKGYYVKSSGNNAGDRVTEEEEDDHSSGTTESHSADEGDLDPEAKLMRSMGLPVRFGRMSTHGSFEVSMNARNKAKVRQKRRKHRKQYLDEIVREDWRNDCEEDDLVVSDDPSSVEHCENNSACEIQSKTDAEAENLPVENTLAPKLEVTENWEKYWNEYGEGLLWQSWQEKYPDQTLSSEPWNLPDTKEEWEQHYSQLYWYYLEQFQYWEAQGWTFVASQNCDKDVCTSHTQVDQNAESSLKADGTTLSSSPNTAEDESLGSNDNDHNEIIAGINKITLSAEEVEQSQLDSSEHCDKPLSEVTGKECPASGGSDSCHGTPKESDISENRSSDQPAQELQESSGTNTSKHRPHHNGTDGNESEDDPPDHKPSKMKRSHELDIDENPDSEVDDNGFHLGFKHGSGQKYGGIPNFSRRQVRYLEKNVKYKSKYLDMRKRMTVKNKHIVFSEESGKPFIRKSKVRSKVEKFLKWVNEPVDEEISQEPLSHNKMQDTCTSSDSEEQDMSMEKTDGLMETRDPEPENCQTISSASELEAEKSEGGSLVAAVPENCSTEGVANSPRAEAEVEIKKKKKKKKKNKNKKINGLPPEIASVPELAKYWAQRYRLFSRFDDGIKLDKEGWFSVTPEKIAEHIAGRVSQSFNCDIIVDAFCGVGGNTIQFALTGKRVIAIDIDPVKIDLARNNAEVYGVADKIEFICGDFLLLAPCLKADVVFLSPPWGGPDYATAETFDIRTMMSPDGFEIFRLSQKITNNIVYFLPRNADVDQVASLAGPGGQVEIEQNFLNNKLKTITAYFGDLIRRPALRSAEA
Assay: co-IP; precleared 500 ug BRIN-BD11 cell lysate incubated with PIMT antibody (4 ug) overnight at 4 C; beads washed with lysis buffer; precipitates blotted with the indicated antibodies; basal (untreated) cells

Substance	binding
MafA (MAF bZIP transcription factor A) (from UniProt D3ZNT6 1-361)	binds
NeuroD1 (neuronal differentiation 1) (from UniProt Q64289 1-357)	no binding
PDX1 (pancreatic and duodenal homeobox 1) (from UniProt P52947 1-283)	binds
